Experimental data from paper PMC4381594.

Target: GCN5-Y260A/F261A (HAT-inactive GCN5 mutant) (human)
Experiment: co-IP; 293T cells co-transfected with expression plasmids; lysates; IP with anti-GCN5 antibody, Western blot with anti-XBP-1 or anti-HA; normal IgG as control

binding: binds
B1: XBP-1S, the active isoform of X-box binding protein 1 (protein, UniProt P17861-2 1-376)
chain: MVVVAAAPNPADGTPKVLLLSGQPASAAGAPAGQALPLMVPAQRGASPEAASGGLPQARKRQRLTHLSPEEKALRRKLKNRVAAQTARDRKKARMSELEQQVVDLEEENQKLLLENQLLREKTHGLVVENQELRQRLGMDALVAEEEAEAKGNEVRPVAGSAESAAGAGPVVTPPEHLPMDSGGIDSSDSESDILLGILDNLDPVMFFKCPSPEPASLEELPEVYPEGPSSLPASLSLSVGTSSAKLEAINELIRFDHIYTKPLVLEIPSETESQANVVVKIEEAPLSPSENDHPEFIVSVKEEPVEDDLVPELGISNLLSSSHCPKPSSCLLDAYSDCGYGGSLSPFSDMSSLLGVNHSWEDTFANELFPQLISV

These are yes or no findings as the source states them, for the method shown. In cells and extracts the contact can be indirect. A result given as binding can be weak or reduced; the word gives no strength.
